Results are given in words; binding and its absence hold for the method and conditions named. Binding calls can cover weak binding; strength is not graded here.
Legend:
[1] = target: human EGR-CK-inhibited Factor IXa Gla-domainless (wild-type) (human); test: co-crystallization, 1:1 molar ratio
[2] = target: human EGR-CK-inhibited Factor IXa Gla-domainless (wild-type) (human); test: size exclusion chromatography of the 1:1 complex and co-crystallization

binding [1] | binding [2] | Binder
binds | – | Fab fragment corresponding to mAb01-9994 (Fab, V domains shown) VH: EVQLVESGGGLVQPGRSLRLSCAASGFTFHDYAMHWVRQVPGKGLEWVSGISWKGDIGGYVDSVKGRFTISRDNEKNSLYLQMNSLRAEDTALYYCVKSYGSGSFYNAFDSWGQGTLVTVSS VL: DIQMTQSPSTLSASVGDRVTITCRASQSISSWLAWYQQKPGKAPKFLIYKASRLDRGTPSRFSGSGSGTEFSLTISSLQPDDFATYYCLEYSSYIRTFGQGTKVEIK
– | binds | Fab fragment corresponding to mAb01-9985 (Fab, V domains shown) VH: EVQLVESGGGLVQPGRSLRLSCAASGFTFHDYAMHWVRQVPGKGLEWVSGISWRGDIGGYVKSVKGRFTISRDNAKNSLYLQMNSLRAEDTALYYCVKSYGSGSFYNAFDSWGQGTLVTVSS VL: DIQMTQSPSTLSASVGDRVTITCRASQSISSWLAWYQQKPGKAPKFLIYKASKLERGTPSRFSGSGSGTEFSLTISSLQPDDFATYYCLEYSSYIRTFGQGTKVEIK
binds | – | Fab fragment corresponding to mAb01-9933 (Fab, V domains shown) VH: EVQLVESGGGLVQPGRSLKLSCAASGFTFDDYAMHWVRQVPGKGLEWVSGISWKGDIGGYVDSVKGRFTISRDNAKNSLYLQLNSLRAEDTALYYCAKSYGSGSFYNAFDSWGQGTLVTVSS VL: DIQMTQSPSTLSASAGDEVTITCRASQSISSWLAWYQQKPGKAPKLLIYKASKLDRGVPSRFSGSGSGTEFSLTISDLQPDDFATYYCLEYSSYIRTFGQGTKVEIK
